Laboratory results from PubChem BioAssay AID1487 (National Center for Advancing Translational Sciences (NCATS), 2009).
Some of the results follow. Further columns of the screen follow, without active or inactive calls. Most of these compounds were active or inconclusive in the main read-out, so they are no random draw. Potencies come from curve fits of mixed quality, noted in brackets.

Assay: qHTS Assay for Modulators of Lamin A Splicing
Settings: HeLa LMNA splicing GFP/RFP minigene ratio, 48 h
Procedure, shortened: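 S3 HeLa cells stably expressing lamin A-EGFP splicing minigene plus DsRed2, 600 cells/well, 48 h compound exposure at 37C. Laser-scanning cytometry; analysed as GFP (500-530 nm)/RFP (575-640 nm) total intensity ratio; 0.5% DMSO vehicle.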

[1] = measured here: GFP splicing reporter channel
[2] = measured here: RFP viability control channel

Compound	AC50 [1]	AC50 [2]
COc1ccccc1CNc1cc(-c2ccoc2)ncn1	17.8 µM [falling, partial curve]	22.4 µM [falling, partial curve]
CCCC(=O)Nc1nc2ccc(NC(=O)c3ccc(Br)o3)cc2s1		25.1 µM [rising, single point]
CC(C)(C)NC(=O)Nc1ccc(Cn2cc(C(F)(F)F)ccc2=O)cc1	0.00355 µM [rising, full curve, poor fit]	0.1 µM [rising, full curve, poor fit]
CC(C)Nc1nnc(SCC(=O)NCc2ccc3c(c2)OCO3)s1	0.0112 µM [falling, full curve, poor fit]	
Cc1nonc1OCCNCc1c(C(=O)N(C)C)nc2ccc(Cl)cn12	2.82 µM [falling, full curve, poor fit]	0.891 µM [falling, full curve, poor fit]
CCOC(=O)c1sc(C)c2c1NC(c1ccc(Cl)cc1)NC2=O (stereo not given)	3.55 µM [rising, single point]	
O=C(Cc1ccccc1)Nc1cc(Cl)ccc1Sc1ccccc1	22.4 µM [rising, single point]	
CN(C)S(=O)(=O)c1ccc(NC(=O)N2CCOCC2)cc1		3.55 µM [rising, partial curve]
COc1cccc(CSc2nc3ccccc3cc2C=O)c1	35.5 µM [rising, single point]	25.1 µM [rising, single point]
Cc1cccc(OCCCC(=O)Nc2nccs2)c1		22.4 µM [rising, partial curve]
Cc1ccc(C)c(N2CCN(C(=O)c3cc4c(=O)n(Cc5ccccc5)ccc4nc3C)CC2)c1	0.00447 µM [falling, full curve, poor fit]	
CC(C)(C)NCCCOc1ccc(Cl)cc1C(C)(C)C		5.62 µM [rising, single point]
Cc1cccc(NS(=O)(=O)c2ccc3[nH]c4c(c3c2)CCCCCC4)c1	15.8 µM [falling, partial curve]	15.8 µM [falling, partial curve]
Cc1cc(F)ccc1S(=O)(=O)Nc1ccccc1C(=O)Nc1ncn[nH]1	15.8 µM [rising, single point]	
CCOC(=O)N1CCN(C(=O)C2CCCN(Cc3nc(-c4ccc(Cl)cc4)oc3C)C2)CC1 (stereo not given)		12.6 µM [rising, partial curve]
O=C(CN1CCCC(O)C1)N1c2ccccc2Sc2ccc(C(F)(F)F)cc21 (stereo not given)		31.6 µM [rising, single point]
CCCCOc1ccc(C(=O)Nc2ccc3c(c2)CCCN3C(=O)c2cccs2)cc1	2.82 µM [falling, full curve]	
COc1ccc(-c2cc(C(F)F)n3ncc(C(=O)n4ccnc4C)c3n2)cc1	20 µM [falling, single point]	
COCCCNC(=O)c1cn(Cc2c(F)cccc2Cl)nn1	35.5 µM [falling, single point]	35.5 µM [falling, single point]
CC(C)(C)c1ccc(C(=O)CCCSC2=C(C#N)C(c3ccco3)C3=C(CCCC3=O)N2)cc1 (stereo not given)	12.6 µM [rising, partial curve, poor fit]	15.8 µM [rising, partial curve]

Compound	AC50 [1]	AC50 [2]
CC(=O)c1ccc(NC(=O)CN(C)CC(=O)Nc2cccc(F)c2)cc1		2.24 µM [falling, full curve, poor fit]
CCOC(=O)C1CCN(C(=O)c2ccccc2NC(=O)c2nsc3ccccc23)CC1	2.24 µM [rising, partial curve]	
CCc1ccc(Nc2nnc(SCc3cc(=O)n4ccsc4n3)s2)cc1		17.8 µM [rising, single point]
Cc1ccnc(NC(=O)c2ccccc2NC(=O)C(C)(C)C)c1		20 µM [rising, single point]
CCOc1ccc2c(c1)C(=NNC(=O)c1ccncc1)c1cc(OCC)ccc1-2		3.16 µM [rising, full curve]
O=S(=O)(c1ccccc1)c1cnn(-c2ccccc2)c1-c1ccc(F)cc1	35.5 µM [rising, single point]	35.5 µM [rising, single point]
O=c1c2[nH]c3ccccc3c2ncn1C1CCCCC1	5.62 µM [rising, full curve, poor fit]	
COc1ccc(OCC(=O)Nc2nc3ccc(NC(C)=O)cc3s2)cc1	12.6 µM [falling, partial curve]	11.2 µM [falling, partial curve]
COc1ccc(C(=O)N[C@H](C(=O)N2CCN(c3ccccc3F)CC2)C(C)C)cc1		22.4 µM [rising, single point]
CCN(CC)CCNC(=O)c1ccc(NC(=O)/C=C/c2cc(OC)c(OC)c(OC)c2)cc1	5.01 µM [falling, full curve, poor fit]	
Nc1cc(N)nc(SCCOc2ccccc2)n1		12.6 µM [rising, single point]
CCCCn1c(NC(=O)c2ccccc2)nc2ccccc21	35.5 µM [rising, single point]	22.4 µM [rising, single point]
CCN(CC(O)CON=C1c2ccccc2-c2ccccc21)S(=O)(=O)c1ccc(C)cc1 (stereo not given)		14.1 µM [rising, partial curve]
COC(=O)c1sccc1NC(=S)Nc1ccccc1		0.0891 µM [rising, full curve, poor fit]
COc1ccc(C)c2sc(NC(=O)c3ccc(S(=O)(=O)N(C)C)cc3)nc12		3.16 µM [rising, partial curve]
O=C(N/N=C/c1c(Cl)[nH]c2ccccc12)c1sc2ccccc2c1Cl	35.5 µM [falling, single point]	
CN(C)c1ccc(-c2nnn(CC(=O)Nc3ccccc3N3CCOCC3)n2)cc1	12.6 µM [rising, partial curve]	17.8 µM [rising, partial curve]
Cc1noc(C)c1S(=O)(=O)N1CCCC(C(=O)NCCc2ccc(Cl)cc2)C1 (stereo not given)		20 µM [rising, single point]
CC(C)CN(CC(C)C)C(=O)c1cccc(S(=O)(=O)N2CCc3ccccc32)c1	25.1 µM [falling, partial curve]	
Cc1ccnc(NC(=O)Nc2ccc3c(c2)N(C)C(=O)CS3)c1	22.4 µM [falling, partial curve, poor fit]	17.8 µM [falling, partial curve]

Compound	AC50 [1]	AC50 [2]
COc1ccc(CN2C(=O)c3ccccc3C2C(=O)NC2CCCC(C)C2C)c(OC)c1 (stereo not given)		0.00631 µM [falling, partial curve, poor fit]
COc1ccc(Oc2cc(C)c3ccccc3n2)cc1	15.8 µM [rising, single point]	12.6 µM [rising, single point]
Cc1cc(C)c(C)c(N=Nc2nc3ccccc3n2C)c1C	35.5 µM [rising, single point]	22.4 µM [rising, single point]
Cc1ccc(CNC(=O)c2ccc(N3CCCC3)c(NC(=O)Nc3ccc(C)cc3)c2)cc1	14.1 µM [falling, single point]	25.1 µM [falling, partial curve, poor fit]
C=CCc1cccc(/C=N/n2cnnc2)c1O		4.47 µM [rising, single point]
O=C(N/N=C/c1cn(-c2ccccc2)nc1-c1cccnc1)c1cccnc1		14.1 µM [rising, partial curve, poor fit]
Cc1ccc(C2C3=C(CC(C)(C)CC3=O)N=C3c4ccccc4C(=O)C32)cc1 (stereo not given)		14.1 µM [rising, partial curve]
Cc1c(C(=O)Nc2ccccc2)sc2nc(-c3ccccc3)cn12		10 µM [rising, partial curve, poor fit]
C/C(=N\NC(N)=S)C12CC3CC(CC(C3)C1)C2	11.2 µM [rising, partial curve]	
CN(Cc1cn(-c2ccccc2)nc1-c1ccc(Cl)cc1)C(=O)CCC(=O)O	8.91 µM [rising, single point]	
CC(=O)C1=C(C)Nc2ncnn2C1c1cccc(OCc2ccccc2)c1 (stereo not given)		35.5 µM [rising, single point]
COC(=O)c1ccc(Oc2ccc(C(F)(F)F)cn2)cc1		0.00355 µM [falling, full curve, poor fit]
Cc1ccc(-c2nnc(N3CCOCC3)c3ccccc23)cc1S(=O)(=O)NCC1CCCO1 (stereo not given)	12.6 µM [rising, single point]	22.4 µM [rising, single point]
CC(C(=O)N1CCN(C2c3ccccc3-c3ccccc32)CC1)N1C(=O)c2ccccc2C1=O (stereo not given)		10 µM [rising, partial curve]
O=[N+]([O-])c1nn(-c2ccccc2)n(O)c1=NC1CCN(Cc2ccccc2)CC1		3.16 µM [falling, single point]
CC(C)[C@H](NC(=O)OC(C)(C)C)c1nnc(SCc2cccc(F)c2)o1		11.2 µM [rising, single point]
c1ccc(Cn2c(-c3cncs3)nc3ccccc32)cc1		35.5 µM [rising, single point]
COc1ccc(-n2c(C)cc(C(=O)Cn3c(NCCO)nc4ccccc43)c2C)cc1	31.6 µM [rising, single point]	31.6 µM [rising, single point]

Gathered by group, those above containing fluorine
Compound	AC50 [1]	AC50 [2]
CC(C)(C)NC(=O)Nc1ccc(Cn2cc(C(F)(F)F)ccc2=O)cc1	0.00355 µM [rising, full curve, poor fit]	0.1 µM [rising, full curve, poor fit]
Cc1cc(F)ccc1S(=O)(=O)Nc1ccccc1C(=O)Nc1ncn[nH]1	15.8 µM [rising, single point]	
O=C(CN1CCCC(O)C1)N1c2ccccc2Sc2ccc(C(F)(F)F)cc21 (stereo not given)		31.6 µM [rising, single point]
COc1ccc(-c2cc(C(F)F)n3ncc(C(=O)n4ccnc4C)c3n2)cc1	20 µM [falling, single point]	
COCCCNC(=O)c1cn(Cc2c(F)cccc2Cl)nn1	35.5 µM [falling, single point]	35.5 µM [falling, single point]
CC(=O)c1ccc(NC(=O)CN(C)CC(=O)Nc2cccc(F)c2)cc1		2.24 µM [falling, full curve, poor fit]
O=S(=O)(c1ccccc1)c1cnn(-c2ccccc2)c1-c1ccc(F)cc1	35.5 µM [rising, single point]	35.5 µM [rising, single point]
COc1ccc(C(=O)N[C@H](C(=O)N2CCN(c3ccccc3F)CC2)C(C)C)cc1		22.4 µM [rising, single point]
COC(=O)c1ccc(Oc2ccc(C(F)(F)F)cn2)cc1		0.00355 µM [falling, full curve, poor fit]
CC(C)[C@H](NC(=O)OC(C)(C)C)c1nnc(SCc2cccc(F)c2)o1		11.2 µM [rising, single point]

Part of the list above, in markdown.

| Compound | AC50 [1] | AC50 [2] |
| --- | --- | --- |
| COc1cccc(CSc2nc3ccccc3cc2C=O)c1 | 35.5 µM [rising, single point] | 25.1 µM [rising, single point] |
| CC(C)(C)NCCCOc1ccc(Cl)cc1C(C)(C)C |  | 5.62 µM [rising, single point] |
